Reference: PubChem BioAssay AID248 (DTP/NCI, 2004)
The list does not hold the whole screen: it gathers tests that were run many times, whatever their T/C, doses with no T/C, and many T/C values between a quarter and a half above the control. Other doses and runs of a compound stand elsewhere. T/C is the treated group as % of the vehicle group. Some entries give survivors of the animals treated and no T/C: the source files T/C as zero there, which appears to mark a toxic dose or a test without result, not a measured value. Some survivor counts are full or nearly so, which does not show that the dose was tolerated: the source hardly ever lists a survival T/C far under the control, and the zero likely stands for such cases as well. Counts of survivors are from the toxicity check (mostly the fifth day) where no day follows; animals may have died later. Schedules are NCI's codes, read here as Q, the interval in days (D) or hours (H), X, the number of doses. Some schedule codes hold Z or #, which are not explained here. Some doses were run more than once; the results are listed from low to high. For survival time, the PubChem record calls one and a half times the control and up active, and a quarter to a half above the control has no call in these data; cut-offs in other NCI protocols can differ. Some T/C values are followed by the survivors on the day toxicity was checked, most often the fifth; without a count, all were alive then.

System: L1210 leukemia ip in BDF1 mice, survival T/C
Test: NCI In Vivo Anticancer Drug Screen. Data for tumor model L1210 Leukemia (intraperitoneal) in B6D2F1 (BDF1) mice
Conditions: T/C endpoint: mean survival time, higher T/C = longer survival
[1] = dose: 400.0 mg/kg/injection, schedule: Q01DX009 (ip), vehicle: Klucel (hydroxypropylcellulose) (HPC)
[2] = dose: 100.0 mg/kg/injection, schedule: Q01DX009 (ip), vehicle: Klucel (hydroxypropylcellulose) (HPC)
[3] = dose: 200.0 mg/kg/injection, schedule: Q01DX009 (ip), vehicle: Klucel (hydroxypropylcellulose) (HPC)
[4] = dose: 28.5 mg/kg/injection, schedule: Q01DX Z (ip), vehicle: carboxymethylcellulose (CMC)
[5] = dose: 140.0 mg/kg/injection, schedule: Q01DX001 (ip), vehicle: saline

In the case of `C[CH2][Sn]([CH2]C)([CH2]C)[O]C(=O)CO`, the survivor count (dose: 25.0 mg/kg/injection, schedule: Q04DX002 (ip), vehicle: saline) is reported as 0 of 3, the survivor count (dose: 50.0 mg/kg/injection, schedule: Q04DX002 (ip), vehicle: saline) is reported as 0 of 3 and the survivor count (dose: 100.0 mg/kg/injection, schedule: Q04DX002 (ip), vehicle: saline) is reported as 0 of 3. For the same molecule, the survivor count (dose: 200.0 mg/kg/injection, schedule: Q04DX002 (ip), vehicle: saline) was 0 of 3 and the survivor count (dose: 400.0 mg/kg/injection, schedule: Q04DX002 (ip), vehicle: saline) was 0 of 3.

`CC(=O)Oc1ccc(N(CCO)CCO)cc1OC(C)=O` was tested, and the survivor count (dose: 9.38 mg/kg/injection, schedule: Q01DX001 (ip), vehicle: water) was 0 of 6, the survivor count (dose: 18.75 mg/kg/injection, schedule: Q01DX001 (ip), vehicle: water) was 0 of 6 and the survivor count (dose: 37.5 mg/kg/injection, schedule: Q01DX001 (ip), vehicle: water) was 0 of 6. For the same molecule, the survivor count (dose: 75.0 mg/kg/injection, schedule: Q01DX001 (ip), vehicle: water) was 0 of 6, the survivor count (dose: 150.0 mg/kg/injection, schedule: Q01DX001 (ip), vehicle: water) was 0 of 6 and the survivor count (dose: 300.0 mg/kg/injection, schedule: Q01DX001 (ip), vehicle: water) was 0 of 6.

`CCC(C)c1ccc(OCCO)cc1` (stereo not drawn) was tested, and the survivor count (dose: 400.0 mg/kg/injection, schedule: Q01DX001 (ip), vehicle: saline) was 1 of 4.

For `CCc1ccccc1NC(=O)NCc1ccco1`, the survivor count [1] was 0 of 6.

In the case of `Cc1cc(O)c(CN(C)C)cc1O`, the survivor count (dose: 300.0 mg/kg/injection, schedule: Q01DX001 (ip), vehicle: saline) is reported as 0 of 6.

With `Cc1ccc(S/N=C\c2ccccc2O)cc1` the survivor count (dose: 100.0 mg/kg/injection, schedule: Q04DX002 (ip), vehicle: Klucel (hydroxypropylcellulose) (HPC)) was 3 of 3.

For `CCC(C)NCCOC(=O)C(c1ccccc1)c1ccccc1` (stereo not drawn), the survivor count (dose: 150.0 mg/kg/injection, schedule: Q01DX001 (ip), vehicle: other) was 2 of 6 and the survivor count (dose: 300.0 mg/kg/injection, schedule: Q01DX001 (ip), vehicle: other) was 0 of 6.

With `CNC(=S)c1ccc(Cl)cc1` the survivor count (dose: 50.0 mg/kg/injection, schedule: Q01DX009 (ip), vehicle: Klucel (hydroxypropylcellulose) (HPC)) was 2 of 6, the survivor count [2] was 0 of 6 and the survivor count [3] was 0 of 6. The survivor count [1] was 0 of 6.

`NC(N)=N/N=C/c1ccccc1F` was tested, and the survivor count (dose: 60.0 mg/kg/injection, schedule: Q01DX Z (ip), vehicle: saline) was 0 of 6 and the survivor count (dose: 120.0 mg/kg/injection, schedule: Q01DX Z (ip), vehicle: saline) was 0 of 6.

In the case of `CCc1ccc2[nH]c(C(=O)O)cc2c1`, the survivor count (dose: 200.0 mg/kg/injection, schedule: Q01DX001 (ip), vehicle: saline) is reported as 3 of 6.

With `CC(=O)Nc1cc(Cl)cc2c1-c1c(Cl)cc(Cl)cc1C2` the survivor count [3] was 3 of 6 and the survivor count [1] was 0 of 6.

With `Cc1ccc([N+](=O)[O-])cc1NC(=O)Nc1onc(C)c1C` the survivor count [2] was 3 of 3.

For `CCOC(=O)C1=C(C)C(C)C(=O)NC1=O` (stereo not drawn), the survivor count (dose: 100.0 mg/kg/injection, schedule: Q01DX009 (ip), vehicle: saline with Tween-80) was 6 of 6.

With `CCOC(=O)NP(=O)(N1CC1)N1CC1` the T/C (dose: 2.5 mg/kg/injection, schedule: Q#A X Z (ip), vehicle: saline) was 140 % of control, the T/C (dose: 3.0 mg/kg/injection, schedule: Q01DX Z (ip), vehicle: carboxymethylcellulose (CMC)) was 125 % of control and the T/C (dose: 4.4 mg/kg/injection, schedule: Q01DX001 (ip), vehicle: saline) was 135 % of control. For the same molecule, the T/C (dose: 4.75 mg/kg/injection, schedule: Q01DX Z (ip), vehicle: carboxymethylcellulose (CMC)) was 131 % of control, the T/C (dose: 5.0 mg/kg/injection, schedule: Q01DX Z (im), vehicle: saline) was 134 % of control and the T/C (dose: 5.0 mg/kg/injection, schedule: Q01DX Z (ip), vehicle: saline) was 137 % of control. For the same molecule, the T/C (dose: 5.0 mg/kg/injection, schedule: Q#A X Z (ip), vehicle: saline) was 149 % of control, the T/C (dose: 6.0 mg/kg/injection, schedule: Q01DX Z (ip), vehicle: carboxymethylcellulose (CMC)) was 148 % of control and the T/C (dose: 8.7 mg/kg/injection, schedule: Q01DX001 (ip), vehicle: saline) was 127 % of control. The T/C (dose: 10.0 mg/kg/injection, schedule: Q01DX Z (sc), vehicle: saline) was 141 % of control, the T/C (dose: 12.0 mg/kg/injection, schedule: Q01DX Z (ip), vehicle: carboxymethylcellulose (CMC)) was 138 % of control and the T/C (dose: 17.5 mg/kg/injection, schedule: Q01DX001 (ip), vehicle: saline, evaluated on day 30) was 118 and 123 % of control. For the same molecule, the T/C (dose: 17.5 mg/kg/injection, schedule: Q01DX001 (ip), vehicle: saline, run until all animals had died) was 138 and 156 % of control, the T/C (dose: 17.5 mg/kg/injection, schedule: Q07DX003 (ip), vehicle: saline) was 136 % of control and the T/C (dose: 19.0 mg/kg/injection, schedule: Q01DX Z (ip), vehicle: carboxymethylcellulose (CMC)) was 113, 147, 156, 196 % of control. For the same molecule, the T/C (dose: 20.0 mg/kg/injection, schedule: Q01DX Z (ip), vehicle: saline) was 126 % of control [5 of 6 alive], the T/C (dose: 20.0 mg/kg/injection, schedule: Q01DX Z (oral), vehicle: saline) was 136 % of control and the survivor count (dose: 20.0 mg/kg/injection, schedule: Q#A X Z (ip), vehicle: saline) was 2 of 6. For the same molecule, the T/C [4] was 126 % of control, the survivor count [4] was 6 of 10 and the T/C (dose: 35.0 mg/kg/injection, schedule: Q01DX001 (ip), vehicle: saline, evaluated on day 30) was 143 and 253 % of control. The T/C (dose: 35.0 mg/kg/injection, schedule: Q01DX001 (ip), vehicle: saline, run until all animals had died) was 144 and 165 % of control, the T/C (dose: 35.0 mg/kg/injection, schedule: Q07DX001 (ip), vehicle: saline) was 138 % of control and the survivor count (dose: 38.0 mg/kg/injection, schedule: Q01DX Z (ip), vehicle: carboxymethylcellulose (CMC)) was 4 of 10. For the same molecule, the T/C (dose: 40.0 mg/kg/injection, schedule: Q01DX006 (iv), vehicle: saline) was 134 % of control [5 of 6 alive], the T/C (dose: 40.0 mg/kg/injection, schedule: Q01DX Z (sc), vehicle: saline) was 149 % of control and the survivor count (dose: 47.5 mg/kg/injection, schedule: Q01DX Z (ip), vehicle: carboxymethylcellulose (CMC)) was 0 of 10 and 9 of 10. For the same molecule, the survivor count (dose: 48.0 mg/kg/injection, schedule: Q01DX Z (ip), vehicle: carboxymethylcellulose (CMC)) was 6 of 6, the survivor count (dose: 60.0 mg/kg/injection, schedule: Q03DX007 (ip), vehicle: saline) was 5 of 6 and the T/C (dose: 70.0 mg/kg/injection, schedule: Q01DX001 (ip), vehicle: saline, evaluated on day 30) was 223 and 239 % of control. The T/C (dose: 70.0 mg/kg/injection, schedule: Q01DX001 (ip), vehicle: saline, run until all animals had died) was 193 and 218 % of control [4 of 6 alive], the survivor count (dose: 80.0 mg/kg/injection, schedule: Q01DX006 (iv), vehicle: saline) was 3 of 6 and the survivor count (dose: 80.0 mg/kg/injection, schedule: Q01DX Z (oral), vehicle: saline) was 3 of 6. For the same molecule, the survivor count (dose: 96.0 mg/kg/injection, schedule: Q01DX Z (ip), vehicle: carboxymethylcellulose (CMC)) was 6 of 6, the survivor count (dose: 120.0 mg/kg/injection, schedule: Q03DX007 (ip), vehicle: saline) was 2 of 6 and the T/C [5] was 102 % of control. For the same molecule, the survivor count [5] was 1 of 6 and 2 of 6, the survivor count (dose: 140.0 mg/kg/injection, schedule: Q07DX001 (ip), vehicle: saline) was 3 of 6 and the survivor count (dose: 160.0 mg/kg/injection, schedule: Q01DX006 (iv), vehicle: saline) was 4 of 6. For the same molecule, the survivor count (dose: 160.0 mg/kg/injection, schedule: Q01DX Z (oral), vehicle: saline) was 1 of 6, the survivor count (dose: 160.0 mg/kg/injection, schedule: Q01DX Z (sc), vehicle: saline) was 4 of 6 and the survivor count (dose: 280.0 mg/kg/injection, schedule: Q01DX001 (ip), vehicle: saline) was 1 of 6. For the same molecule, the survivor count (dose: 280.0 mg/kg/injection, schedule: Q07DX001 (ip), vehicle: saline) was 2 of 6 and the survivor count (dose: 320.0 mg/kg/injection, schedule: Q01DX Z (sc), vehicle: saline) was 5 of 6.

With `O=S1(=O)N2CN3CN(C2)CN1C3` the survivor count [1] was 2 of 6.
